Results are given in words; binding and its absence hold for the method and conditions named. Binding seen in cells or lysates may run through a third protein. Some results given as binding are weak or reduced against the parent protein; the word gives no strength.
Assays:
[1] = target: Dedicator of cytokinesis 8 (DOCK8) (mouse (endogenous in MH-S)) (UniProt Q8C147); test: co-IP; MH-S cells with circCDC42-OE plasmid or empty vector, or circCDC42 siRNA or siNC, infected with KP; CDC42 and CDC42-165aa bound to DOCK8; precipitating antibody not stated
[2] = target: T1, ASC (mouse (endogenous in MH-S)) (UniProt Q9EPB4); test: co-IP; MH-S cells with empty vector or circCDC42-OE plasmid for 24 h, then KP at MOI 20:1 for 4 h; co-immunoprecipitation with the anti-Pyrin and ASC antibodies, respectively
T1 sequence: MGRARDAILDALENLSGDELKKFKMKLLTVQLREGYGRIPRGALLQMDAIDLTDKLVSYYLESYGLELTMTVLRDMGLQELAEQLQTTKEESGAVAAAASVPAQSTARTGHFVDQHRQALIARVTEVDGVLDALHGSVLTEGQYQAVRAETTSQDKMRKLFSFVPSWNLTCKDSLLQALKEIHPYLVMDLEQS

Protein sequences, listed by entry. Tags and fused reporters are not part of them.
UniProt Q8C147: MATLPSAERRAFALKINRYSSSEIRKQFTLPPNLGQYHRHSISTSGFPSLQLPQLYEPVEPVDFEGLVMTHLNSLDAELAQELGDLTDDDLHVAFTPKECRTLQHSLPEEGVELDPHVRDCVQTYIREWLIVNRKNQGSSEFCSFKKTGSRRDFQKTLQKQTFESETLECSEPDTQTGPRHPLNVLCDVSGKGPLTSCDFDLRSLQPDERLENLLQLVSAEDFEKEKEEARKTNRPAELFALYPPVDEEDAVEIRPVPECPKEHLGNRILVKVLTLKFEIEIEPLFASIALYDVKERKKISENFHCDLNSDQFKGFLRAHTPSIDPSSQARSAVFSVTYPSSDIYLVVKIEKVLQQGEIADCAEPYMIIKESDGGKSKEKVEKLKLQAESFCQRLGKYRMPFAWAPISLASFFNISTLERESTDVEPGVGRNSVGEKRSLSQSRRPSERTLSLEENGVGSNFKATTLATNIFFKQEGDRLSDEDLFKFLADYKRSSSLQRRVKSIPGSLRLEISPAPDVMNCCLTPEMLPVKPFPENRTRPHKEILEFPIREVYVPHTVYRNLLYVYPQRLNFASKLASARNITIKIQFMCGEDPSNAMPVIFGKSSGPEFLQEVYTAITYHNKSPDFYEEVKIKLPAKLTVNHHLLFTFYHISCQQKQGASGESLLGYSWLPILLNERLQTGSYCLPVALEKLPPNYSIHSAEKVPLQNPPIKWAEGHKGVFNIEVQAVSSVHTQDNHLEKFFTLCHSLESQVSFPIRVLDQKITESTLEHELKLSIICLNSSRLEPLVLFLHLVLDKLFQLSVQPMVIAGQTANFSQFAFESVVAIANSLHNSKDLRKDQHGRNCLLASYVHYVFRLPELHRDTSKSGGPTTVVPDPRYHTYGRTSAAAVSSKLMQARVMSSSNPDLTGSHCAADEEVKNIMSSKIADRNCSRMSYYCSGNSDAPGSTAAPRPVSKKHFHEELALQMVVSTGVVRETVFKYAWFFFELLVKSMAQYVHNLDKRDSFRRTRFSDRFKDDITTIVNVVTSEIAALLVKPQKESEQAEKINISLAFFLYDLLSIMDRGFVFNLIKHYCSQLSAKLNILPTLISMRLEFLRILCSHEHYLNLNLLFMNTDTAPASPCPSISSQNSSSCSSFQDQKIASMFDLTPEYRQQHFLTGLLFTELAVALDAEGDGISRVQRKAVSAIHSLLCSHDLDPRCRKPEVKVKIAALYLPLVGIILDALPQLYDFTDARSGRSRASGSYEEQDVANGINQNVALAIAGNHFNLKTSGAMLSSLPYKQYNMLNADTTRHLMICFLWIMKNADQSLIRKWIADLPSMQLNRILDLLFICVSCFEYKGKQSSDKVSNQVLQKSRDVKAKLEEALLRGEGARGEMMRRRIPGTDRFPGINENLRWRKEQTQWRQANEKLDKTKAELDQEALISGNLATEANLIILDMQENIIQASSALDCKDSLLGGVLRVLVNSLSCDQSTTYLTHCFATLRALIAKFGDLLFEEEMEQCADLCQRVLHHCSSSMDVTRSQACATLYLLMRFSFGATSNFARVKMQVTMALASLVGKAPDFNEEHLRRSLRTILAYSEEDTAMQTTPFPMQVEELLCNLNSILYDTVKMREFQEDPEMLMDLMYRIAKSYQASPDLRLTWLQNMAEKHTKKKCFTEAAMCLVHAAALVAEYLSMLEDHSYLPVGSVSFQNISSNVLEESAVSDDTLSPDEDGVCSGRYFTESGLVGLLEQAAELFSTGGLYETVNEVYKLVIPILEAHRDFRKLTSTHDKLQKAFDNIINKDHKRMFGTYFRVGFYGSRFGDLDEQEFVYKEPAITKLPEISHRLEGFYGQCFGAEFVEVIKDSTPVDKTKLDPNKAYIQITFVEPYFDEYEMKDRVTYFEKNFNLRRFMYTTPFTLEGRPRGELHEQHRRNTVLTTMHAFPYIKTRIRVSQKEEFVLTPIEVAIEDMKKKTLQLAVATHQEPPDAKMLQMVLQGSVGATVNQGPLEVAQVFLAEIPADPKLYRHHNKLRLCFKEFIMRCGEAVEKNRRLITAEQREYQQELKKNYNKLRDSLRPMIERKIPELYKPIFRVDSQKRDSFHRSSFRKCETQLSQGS
UniProt P60766: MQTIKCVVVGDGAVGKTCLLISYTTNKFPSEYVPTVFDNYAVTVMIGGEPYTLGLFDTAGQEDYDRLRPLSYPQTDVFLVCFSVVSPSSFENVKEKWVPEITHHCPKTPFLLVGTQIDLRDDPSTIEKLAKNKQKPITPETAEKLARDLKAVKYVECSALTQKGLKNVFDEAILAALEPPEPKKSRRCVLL

Molecule: Cell division cycle 42 (CDC42) (from UniProt P60766 1-191)
- binding [1]: binds

B1: Pyrin (protein, UniProt Q9JJ26 1-767)
chain: MAKTLGDHLLNTLEELLPYDFEKFKFKLQNTSLEKGHSKIPRGHMQMARPVKLASLLITYYGEEYAVRLTLQILRATNQRQLAEELRKATGTEHLIEENRVGGSVQSSVENKAKSVKVPDVPEGDGTQQNNDESDTLPSSQAEVGKGPQKKSLTKRKDQRGPESLDSQTKPWTRSTAPLYRRTQGTQSPGDKESTASAQLRRNVSSAGRLQGLYNNAPGRRESKKAEVYVYLPSGKKRPRSLEITTYSREGEPPNSEVLPTQEETRNGSLIRMRTATLNGRTTGALEKGTGIPEHSMVLDEKTFRNMSSKTSLIGEERCPTSWTENGNGSPETTESSGETAGSILSDPEVPLSLCEKPAKTPEDPASLGQAACEGRSQDKAVCPLCHTQEGDLRGDTCVQSSCSCSIAPGDPKASGRCSICFQCQGLLARKSCEAQSPQSLPQCPRHMKQVLLLFCEDHREPICLICRLSLEHQGHRVRPIEEAALEYKEQIREQLERLREMRGYVEEHRLQGDKKTDDFLKQTEIQKQKISCPLEKLYQLLEKQEQLFVTWLQELSQTISKVRETYYTRVSLLDEMIEELEAKQDQPEWDLMQDIGITLHRAKMMSASELLDTPPGVKEKLHLLYQKSKSVEKNMQCFSEMLSSEMAFSASDVAKWEGRQPSATQVQGLVPTVHLKCDGAHTQDCDVVFYPEREAGGSEPKDYLHPQPAQDTPELHEIHSRNNKRKFKSFLKWKPSFSRTDWRLRTCCYRDLDQAAAHPNLIFSMI
- binding [2]: binds

Source: paper PMC11231140
